# PubChem BioAssay AID1259308 | NCATS | 2017
# Test: 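Knock-downs that increase output of a recombinant reporter protein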 (primary screen)
# System: human HEK293 embryonic kidney cells stably expressing firefly luciferase (HEK-CMV-Luc2-Hygro)
# Knock-down reagent: single siRNA against human genes, 0.8 pmol siRNA per well
# Time to read-out: 72 h
# Measurement: 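Reporter luminescence and viable-cell signal on separate replicate plates, given as percent of non-targeting control and median/MAD z-scores, plus per-cell luciferase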
# Scale: total luciferase, z-score and total luciferase, % of control: higher = more reporter protein produced; luciferase per cell, z-score: higher = more reporter output per viable cell; viable cells, % of control: higher = more viable cells
# Rule for the call: 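An siRNA counts as active if its total luciferase robust z-score exceeds 3; genes with two or more such siRNAs out of three were retested with fresh siRNAs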
# Calls: active = raised luciferase; inactive = no rise
# The whole screen tested about 59,000 reagents; below is a part drawn at random. In the full data, about 1,510 (2.6%) got an active call. 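Calls use total luciferase alone and ignore viability, so some active siRNAs may act by altering cell number.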 A number with no mark means an inactive call. Reagents against one gene are numbered here. No sequences are given here.
target,siRNA no.,"total luciferase, z-score","total luciferase, % of control","luciferase per cell, z-score","viable cells, % of control"
ZNF852,1,0.761,97,0.428,96.9
ZNF852,2,0.0425,82.7,-0.654,110
ZNF852,3,-2.39,34.4,-3.61,99.4
DNAJC7,1,0.238,86.6,0.358,88.1
DNAJC7,2,-2.1,40,-1.54,67.1
DNAJC7,3,0.639,94.6,0.976,81.7
HPGD,1,-0.275,76.4,-0.29,92.2
HPGD,2,0.994,102,0.597,97.1
HPGD,3,0.283,87.5,0.191,93
DCLK2,1,-0.817,65.6,-0.731,88.9
DCLK2,2,0.326,88.4,0.361,89.8
DCLK2,3,-1.24,57.3,-1.68,99.8
ZNF653,1,-1.5,52,-1.97,97.5
ZNF653,2,-0.187,78.2,0.261,81.5
ZNF653,3,-0.112,79.7,0.244,83.5
CDKN2A,1,-0.317,75.6,-0.492,96.1
CDKN2A,2,-1.19,58.3,-0.933,83.2
CDKN2A,3,-0.152,78.9,-0.242,93.9
PPP6C,1,1.3,108,1.04,91.5
PPP6C,2,4.65 (active),174,1.9,118
PPP6C,3,1.99,121,0.76,111

5 of these entries, set out differently.
| target | siRNA no. | total luciferase, z-score | total luciferase, % of control | luciferase per cell, z-score | viable cells, % of control |
| --- | --- | --- | --- | --- | --- |
| DNAJC7 | 1 | 0.238 | 86.6 | 0.358 | 88.1 |
| DNAJC7 | 2 | -2.1 | 40 | -1.54 | 67.1 |
| DNAJC7 | 3 | 0.639 | 94.6 | 0.976 | 81.7 |
| HPGD | 1 | -0.275 | 76.4 | -0.29 | 92.2 |
| HPGD | 2 | 0.994 | 102 | 0.597 | 97.1 |

Next entries:
target,siRNA no.,"total luciferase, z-score","total luciferase, % of control","luciferase per cell, z-score","viable cells, % of control"
HMGCS2,1,-0.0412,81.1,-0.91,115
HMGCS2,2,-0.628,69.4,-0.43,86.9
HMGCS2,3,-0.554,70.9,-0.675,94.6
H2AC21,1,0.475,91.3,1.18,74.8
H2AC21,2,-0.169,78.5,-0.0204,88.2
H2AC21,3,0.609,94,-0.0243,106
NRAP,1,1.39,110,2.63,61.3
NRAP,2,1.12,104,0.734,96
NRAP,3,1.37,109,0.653,103
SLC35F3,1,-0.578,70.4,-0.172,82.3
SLC35F3,2,1.71,116,1.48,87.6
SLC35F3,3,0.782,97.4,1.48,73.7
ANXA7,1,-0.147,79,0.322,81.1
ANXA7,2,0.802,97.8,0.518,95.4
ANXA7,3,1.55,113,1.11,94.1
BLOC1S5,1,0.725,96.3,0.456,95.5
BLOC1S5,2,2.3,128,0.951,111
BLOC1S5,3,-0.925,63.5,0.0823,69.4
